Results are given in words; binding and its absence hold for the method and conditions named. Some results given as binding are weak or reduced against the parent protein; the word gives no strength.
Biological target: B7-1-mCherry, on HEK293 cells (UniProt P33681)
Assay: flow cytometry on cells

Sequences of proteins named here, by UniProt entry; tags and fusion partners are left off. Residues count along the entry.
UniProt P08138, residues 29-427: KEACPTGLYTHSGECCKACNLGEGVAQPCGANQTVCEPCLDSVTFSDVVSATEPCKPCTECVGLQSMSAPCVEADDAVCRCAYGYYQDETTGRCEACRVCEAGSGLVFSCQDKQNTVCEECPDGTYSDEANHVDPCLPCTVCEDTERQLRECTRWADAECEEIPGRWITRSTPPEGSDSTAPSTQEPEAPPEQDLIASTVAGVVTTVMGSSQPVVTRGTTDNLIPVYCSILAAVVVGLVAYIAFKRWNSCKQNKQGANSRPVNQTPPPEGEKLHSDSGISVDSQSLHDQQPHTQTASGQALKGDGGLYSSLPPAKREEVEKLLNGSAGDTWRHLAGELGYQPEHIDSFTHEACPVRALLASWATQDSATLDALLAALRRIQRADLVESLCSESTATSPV

p75^NTR-GFP, on HEK293 cells (from UniProt P08138 29-427) (receptor)
binding: binds
